Earlier results in US20160175634A1 (priority 2014, published 2016).
For at least one compound, name, drawing or mass did not settle the structure.

Details: cited from earlier work

In the case of `CC(=O)Oc1ccc(O)c(O)c1` [3,4 Dihydroxypheny acetate], the Kow of substrate is listed as 0.47.
